Article PMC6199744, “Development of Chemical Proteomics for the Folateome and Analysis of the Kinetoplastid Folateome” (ACS Infectious Diseases, 2018)
Further values from the same series stand in other lists.

Tested on: L. major lysate proteins
Experiment: Multitargeted bead mixture chemoproteomics, single concentration competition, proteome-wide
Type: binding
Conditions: for fold change: vehicle control = 1

CCCCCCOc1ccc(Cc2cnc(N)nc2N)cc1 [compound 1]
fold change (protein LMJF.11.0350 14-3-3 PROTEIN, PUTATIVE): 1.09 | fold change (protein LMJF.11.0630 AMINOPEPTIDASE, PUTATIVE,METALLO-PEPTIDASE, CLAN MF, FAMILY M17): 1.14 | fold change (protein LMJF.11.1160 PROTEIN TRANSPORT PROTEIN SEC31, PUTATIVE): 1.08 | fold change (protein LMJF.12.0030 […]-1 SUBUNIT, PUTATIVE): 1.11 | fold change (protein LMJF.12.0530 GLUCOSE-6-PHOSPHATE ISOMERASE): 1.66 | fold change (protein LMJF.12.0670 […] OXIDASE SUBUNIT IV): 1.09 | fold change (protein LMJF.13.0570 40S RIBOSOMAL PROTEIN S12, PUTATIVE): 1.01 | fold change (protein LMJF.13.1190 ADENYLOSUCCINATE SYNTHETASE, PUTATIVE): 0.99 | fold change (protein LMJF.13.1660 CHAPERONIN TCP20, PUTATIVE): 0.94 | fold change vs vehicle control (protein LMJF.14.0190 HYPOTHETICAL PROTEIN, CONSERVED): 0.92 | fold change (protein LMJF.14.0460 CYSTATHIONINE BETA-LYASE-LIKE PROTEIN): 0.76 | fold change (protein LMJF.14.0680 FATTY ACID ELONGASE, PUTATIVE): 1.11 | fold change (protein LMJF.14.1160 ENOLASE): 0.99 | fold change (protein LMJF.14.1440 HY[…], CONSERVED): 1.02 | fold change (protein LMJF.15.0190 HYPOTHETICAL PROTEIN, CONSERVED): 0.96 | fold change (protein LMJF.15.1160 TR[…]): 1.03 | fold change vs vehicle control (protein LMJF.15.1380 NUCLEOLAR RNA BINDING PROTEIN, PUTATIVE): 0.93 | fold change (protein LMJF.16.0760 TRANSALDOLASE, PUTATIVE): 1.14 | fold change (protein LMJF.16.0940 DYNEIN LIGHT CHAIN, PUTATIVE): 1.13 | fold change (protein LMJF.17.0081 […] 1-ALPHA): 1.13 | fold change (protein LMJF.17.0980 HYPOTHETICAL PROTEIN, CONSERVED): 0.98 | fold change (protein LMJF.18.0210 HYPOTHETICAL PROTEIN, CONSERVED): 1.36 | fold change (protein LMJF.18.0580 PEROXISOMAL ENOYL-COA HYDRATASE, PUTATIVE): 0.93 | fold change (protein LMJF.18.0680 CITRATE SYNTHASE, PUTATIVE): 0.9 | fold change (protein LMJF.18.0740 ELONGATION FACTOR TU, PUTATIVE): 0.95 | fold change (protein LMJF.18.1010 DYNEIN LIGHT CHAIN 2B, CYTOPLASMIC, PUTATIVE): 0.95 | fold change vs vehicle control (protein LMJF.18.1210 PROLYL-TRNA SYNTHETASE, PUTATIVE,BI[…]-TRNA SYNTHETASE, PUTATIVE): 1.06 | fold change (protein LMJF.18.1380 PYRUVATE DEHYDROGENASE E1 COMPONENT ALPHA SUBUNIT, PUTATIVE): 0.81 | fold change (protein LMJF.19.0100 FIBRILLARIN, PUTATIVE): 0.96 | fold change vs vehicle control (protein LMJF.19.0710 GLYCOSOMAL MALATE DEHYDROGENASE): 0.97 | fold change (protein LMJF.19.0750 HY[…], CONSERVED): 1.02 | fold change (protein LMJF.19.0995 4-COUMARATE:COA LIGASE-LIKE PROTEIN): 1.4 | fold change (protein LMJF.19.1010 HY[…], CONSERVED): 1.43 | fold change (protein LMJF.19.1420 CYSTEINE PEPTIDASE A (CPA)): 0.49 | fold change (protein LMJF.19.1560 INOSINE-5'-MONOPHOSPHATE DEHYDROGENASE): 1.12 | fold change vs vehicle control (protein LMJF.19.1620 POTASSIUM VOLTAGE-GATED CHANNEL, PUTATIVE): 0.91 | fold change (protein LMJF.21.0280 HY[…], CONSERVED): 1.04 | fold change (protein LMJF.21.1090 T-COMPLEX PROTEIN 1, DELTA SUBUNIT, PUTATIVE): 0.97 | fold change vs vehicle control (protein LMJF.21.1552 RNA HELICASE, PUTATIVE): 0.96 | fold change (protein LMJF.21.1710 […] OXIDASE SUBUNIT VI, PUTATIVE): 0.99 | fold change (protein LMJF.21.1830 […] 5 SUBUNIT, PUTATIVE): 1.18 | fold change (protein LMJF.22.0420 40S RIBOSOMAL PROTEIN S15, PUTATIVE): 1.16 | fold change (protein LMJF.22.0570 […] SUBUNIT 1, PUTATIVE): 1.02 | fold change (protein LMJF.22.1360 FARNESYL PYR[…]): 1.16 | fold change (protein LMJF.22.1450 CYCLOPHILIN 6, PUTATIVE): 0.85 | fold change (protein LMJF.23.0040 PEROXIDOXIN): 1.12 | fold change (protein LMJF.23.0200 ENDORIBONUCLEASE L-PSP (PB5), PUTATIVE): 0.93 | fold change (protein LMJF.23.0560 KINESIN, PUTATIVE): 0.97 | fold change (protein LMJF.25.1710 PYRUVATE DEHYDROGENASE E1 BETA SUBUNIT, PUTATIVE): 0.8 | fold change (protein LMJF.26.0280 HY[…], CONSERVED): 1.17 | fold change (protein LMJF.26.0830 […], PUTATIVE): 0.84 | fold change (protein LMJF.27.0190 […] 7 SUBUNIT, PUTATIVE): 1.07 | fold change (protein LMJF.27.0560 PROTEIN KINASE, PUTATIVE,CDC2-RELATED KINASE, PUTATIVE): 1.08 | fold change (protein LMJF.27.0760 GTP-binding protein homologue): 0.91 | fold change (protein LMJF.27.0930 ISOVALERYL-COA DEHYDROGENASE, PUTATIVE): 1.18 | fold change (protein LMJF.27.1260 T-COMPLEX PROTEIN 1, BETA SUBUNIT, PUTATIVE): 0.99 | fold change (protein LMJF.27.1300 HY[…], CONSERVED): 1.06 | fold change (protein LMJF.27.1390 60S ACIDIC RIBOSOMAL SUBUNIT PROTEIN, PUTATIVE): 1.12 | fold change (protein LMJF.27.2330 GTP BINDING PROTEIN, PUTATIVE): 1 | fold change (protein LMJF.28.0960 40S RIBOSOMAL PROTEIN S14): 1.2 | fold change vs vehicle control (protein LMJF.28.0980 P27 PROTEIN, PUTATIVE): 0.95 | fold change (protein LMJF.28.2260 […] PROTEIN, PUTATIVE): 1.03 | fold change (protein LMJF.28.2420 2-OXOGLUTARATE DEHYDROGENASE, E2 COMPONENT, DIHYDROLIPOAMIDE SUCCINYLTRANSFERASE, PUTATIVE): 0.95 | fold change (protein LMJF.28.2430 VACUOLAR ATP SYNTHASE SUBUNIT B, PUTATIVE): 0.83 | fold change (protein LMJF.28.2460 RIBOSOMAL PROTEIN S29, PUTATIVE): 1.24
